The exact form of at least one protein or probe is not confirmed.

This is an account of results in article PMC7475178, “Dynamic regulation of anthocyanin biosynthesis at different light intensities by the BT2-TCP46-MYB1 module in apple”.

The data set deals with MdMYB1-HIS + MdTCP46-HIS. Kind of data set: EMSA. Conditions: MdTCP46-HIS added, binding stronger than MdMYB1 alone; Proteins and biotin probes mixed in binding buffer for 25 min, acrylamide gel; pH and temperature not stated; recombinant protein; protein details: His (pET32a),His (pET32a); label: biotin. (In general: A gel shift assay detects complexes by their altered migration in electrophoresis.)

For “ACCTTCCCGTCAGTTATTGCAGGTGG (double strand) [MdUF3GT-Probe]”, the binding result is “binds”.
On to “CGTGCGTCAACCGTTAGGAAAGCACG (double strand) [MdDFR-Probe]”, for which the binding result was “binds”.
